Measured values from paper PMC4405365.
No constants are given. Whether binding was seen depends on the method and setting. Binding seen in cells or lysates may run through a third protein.

Sequences of proteins named here, by UniProt entry; tags and fusion partners are left off. A change or cut given only in a name is not applied to a line headed by its entry.
UniProt Q9JKS6: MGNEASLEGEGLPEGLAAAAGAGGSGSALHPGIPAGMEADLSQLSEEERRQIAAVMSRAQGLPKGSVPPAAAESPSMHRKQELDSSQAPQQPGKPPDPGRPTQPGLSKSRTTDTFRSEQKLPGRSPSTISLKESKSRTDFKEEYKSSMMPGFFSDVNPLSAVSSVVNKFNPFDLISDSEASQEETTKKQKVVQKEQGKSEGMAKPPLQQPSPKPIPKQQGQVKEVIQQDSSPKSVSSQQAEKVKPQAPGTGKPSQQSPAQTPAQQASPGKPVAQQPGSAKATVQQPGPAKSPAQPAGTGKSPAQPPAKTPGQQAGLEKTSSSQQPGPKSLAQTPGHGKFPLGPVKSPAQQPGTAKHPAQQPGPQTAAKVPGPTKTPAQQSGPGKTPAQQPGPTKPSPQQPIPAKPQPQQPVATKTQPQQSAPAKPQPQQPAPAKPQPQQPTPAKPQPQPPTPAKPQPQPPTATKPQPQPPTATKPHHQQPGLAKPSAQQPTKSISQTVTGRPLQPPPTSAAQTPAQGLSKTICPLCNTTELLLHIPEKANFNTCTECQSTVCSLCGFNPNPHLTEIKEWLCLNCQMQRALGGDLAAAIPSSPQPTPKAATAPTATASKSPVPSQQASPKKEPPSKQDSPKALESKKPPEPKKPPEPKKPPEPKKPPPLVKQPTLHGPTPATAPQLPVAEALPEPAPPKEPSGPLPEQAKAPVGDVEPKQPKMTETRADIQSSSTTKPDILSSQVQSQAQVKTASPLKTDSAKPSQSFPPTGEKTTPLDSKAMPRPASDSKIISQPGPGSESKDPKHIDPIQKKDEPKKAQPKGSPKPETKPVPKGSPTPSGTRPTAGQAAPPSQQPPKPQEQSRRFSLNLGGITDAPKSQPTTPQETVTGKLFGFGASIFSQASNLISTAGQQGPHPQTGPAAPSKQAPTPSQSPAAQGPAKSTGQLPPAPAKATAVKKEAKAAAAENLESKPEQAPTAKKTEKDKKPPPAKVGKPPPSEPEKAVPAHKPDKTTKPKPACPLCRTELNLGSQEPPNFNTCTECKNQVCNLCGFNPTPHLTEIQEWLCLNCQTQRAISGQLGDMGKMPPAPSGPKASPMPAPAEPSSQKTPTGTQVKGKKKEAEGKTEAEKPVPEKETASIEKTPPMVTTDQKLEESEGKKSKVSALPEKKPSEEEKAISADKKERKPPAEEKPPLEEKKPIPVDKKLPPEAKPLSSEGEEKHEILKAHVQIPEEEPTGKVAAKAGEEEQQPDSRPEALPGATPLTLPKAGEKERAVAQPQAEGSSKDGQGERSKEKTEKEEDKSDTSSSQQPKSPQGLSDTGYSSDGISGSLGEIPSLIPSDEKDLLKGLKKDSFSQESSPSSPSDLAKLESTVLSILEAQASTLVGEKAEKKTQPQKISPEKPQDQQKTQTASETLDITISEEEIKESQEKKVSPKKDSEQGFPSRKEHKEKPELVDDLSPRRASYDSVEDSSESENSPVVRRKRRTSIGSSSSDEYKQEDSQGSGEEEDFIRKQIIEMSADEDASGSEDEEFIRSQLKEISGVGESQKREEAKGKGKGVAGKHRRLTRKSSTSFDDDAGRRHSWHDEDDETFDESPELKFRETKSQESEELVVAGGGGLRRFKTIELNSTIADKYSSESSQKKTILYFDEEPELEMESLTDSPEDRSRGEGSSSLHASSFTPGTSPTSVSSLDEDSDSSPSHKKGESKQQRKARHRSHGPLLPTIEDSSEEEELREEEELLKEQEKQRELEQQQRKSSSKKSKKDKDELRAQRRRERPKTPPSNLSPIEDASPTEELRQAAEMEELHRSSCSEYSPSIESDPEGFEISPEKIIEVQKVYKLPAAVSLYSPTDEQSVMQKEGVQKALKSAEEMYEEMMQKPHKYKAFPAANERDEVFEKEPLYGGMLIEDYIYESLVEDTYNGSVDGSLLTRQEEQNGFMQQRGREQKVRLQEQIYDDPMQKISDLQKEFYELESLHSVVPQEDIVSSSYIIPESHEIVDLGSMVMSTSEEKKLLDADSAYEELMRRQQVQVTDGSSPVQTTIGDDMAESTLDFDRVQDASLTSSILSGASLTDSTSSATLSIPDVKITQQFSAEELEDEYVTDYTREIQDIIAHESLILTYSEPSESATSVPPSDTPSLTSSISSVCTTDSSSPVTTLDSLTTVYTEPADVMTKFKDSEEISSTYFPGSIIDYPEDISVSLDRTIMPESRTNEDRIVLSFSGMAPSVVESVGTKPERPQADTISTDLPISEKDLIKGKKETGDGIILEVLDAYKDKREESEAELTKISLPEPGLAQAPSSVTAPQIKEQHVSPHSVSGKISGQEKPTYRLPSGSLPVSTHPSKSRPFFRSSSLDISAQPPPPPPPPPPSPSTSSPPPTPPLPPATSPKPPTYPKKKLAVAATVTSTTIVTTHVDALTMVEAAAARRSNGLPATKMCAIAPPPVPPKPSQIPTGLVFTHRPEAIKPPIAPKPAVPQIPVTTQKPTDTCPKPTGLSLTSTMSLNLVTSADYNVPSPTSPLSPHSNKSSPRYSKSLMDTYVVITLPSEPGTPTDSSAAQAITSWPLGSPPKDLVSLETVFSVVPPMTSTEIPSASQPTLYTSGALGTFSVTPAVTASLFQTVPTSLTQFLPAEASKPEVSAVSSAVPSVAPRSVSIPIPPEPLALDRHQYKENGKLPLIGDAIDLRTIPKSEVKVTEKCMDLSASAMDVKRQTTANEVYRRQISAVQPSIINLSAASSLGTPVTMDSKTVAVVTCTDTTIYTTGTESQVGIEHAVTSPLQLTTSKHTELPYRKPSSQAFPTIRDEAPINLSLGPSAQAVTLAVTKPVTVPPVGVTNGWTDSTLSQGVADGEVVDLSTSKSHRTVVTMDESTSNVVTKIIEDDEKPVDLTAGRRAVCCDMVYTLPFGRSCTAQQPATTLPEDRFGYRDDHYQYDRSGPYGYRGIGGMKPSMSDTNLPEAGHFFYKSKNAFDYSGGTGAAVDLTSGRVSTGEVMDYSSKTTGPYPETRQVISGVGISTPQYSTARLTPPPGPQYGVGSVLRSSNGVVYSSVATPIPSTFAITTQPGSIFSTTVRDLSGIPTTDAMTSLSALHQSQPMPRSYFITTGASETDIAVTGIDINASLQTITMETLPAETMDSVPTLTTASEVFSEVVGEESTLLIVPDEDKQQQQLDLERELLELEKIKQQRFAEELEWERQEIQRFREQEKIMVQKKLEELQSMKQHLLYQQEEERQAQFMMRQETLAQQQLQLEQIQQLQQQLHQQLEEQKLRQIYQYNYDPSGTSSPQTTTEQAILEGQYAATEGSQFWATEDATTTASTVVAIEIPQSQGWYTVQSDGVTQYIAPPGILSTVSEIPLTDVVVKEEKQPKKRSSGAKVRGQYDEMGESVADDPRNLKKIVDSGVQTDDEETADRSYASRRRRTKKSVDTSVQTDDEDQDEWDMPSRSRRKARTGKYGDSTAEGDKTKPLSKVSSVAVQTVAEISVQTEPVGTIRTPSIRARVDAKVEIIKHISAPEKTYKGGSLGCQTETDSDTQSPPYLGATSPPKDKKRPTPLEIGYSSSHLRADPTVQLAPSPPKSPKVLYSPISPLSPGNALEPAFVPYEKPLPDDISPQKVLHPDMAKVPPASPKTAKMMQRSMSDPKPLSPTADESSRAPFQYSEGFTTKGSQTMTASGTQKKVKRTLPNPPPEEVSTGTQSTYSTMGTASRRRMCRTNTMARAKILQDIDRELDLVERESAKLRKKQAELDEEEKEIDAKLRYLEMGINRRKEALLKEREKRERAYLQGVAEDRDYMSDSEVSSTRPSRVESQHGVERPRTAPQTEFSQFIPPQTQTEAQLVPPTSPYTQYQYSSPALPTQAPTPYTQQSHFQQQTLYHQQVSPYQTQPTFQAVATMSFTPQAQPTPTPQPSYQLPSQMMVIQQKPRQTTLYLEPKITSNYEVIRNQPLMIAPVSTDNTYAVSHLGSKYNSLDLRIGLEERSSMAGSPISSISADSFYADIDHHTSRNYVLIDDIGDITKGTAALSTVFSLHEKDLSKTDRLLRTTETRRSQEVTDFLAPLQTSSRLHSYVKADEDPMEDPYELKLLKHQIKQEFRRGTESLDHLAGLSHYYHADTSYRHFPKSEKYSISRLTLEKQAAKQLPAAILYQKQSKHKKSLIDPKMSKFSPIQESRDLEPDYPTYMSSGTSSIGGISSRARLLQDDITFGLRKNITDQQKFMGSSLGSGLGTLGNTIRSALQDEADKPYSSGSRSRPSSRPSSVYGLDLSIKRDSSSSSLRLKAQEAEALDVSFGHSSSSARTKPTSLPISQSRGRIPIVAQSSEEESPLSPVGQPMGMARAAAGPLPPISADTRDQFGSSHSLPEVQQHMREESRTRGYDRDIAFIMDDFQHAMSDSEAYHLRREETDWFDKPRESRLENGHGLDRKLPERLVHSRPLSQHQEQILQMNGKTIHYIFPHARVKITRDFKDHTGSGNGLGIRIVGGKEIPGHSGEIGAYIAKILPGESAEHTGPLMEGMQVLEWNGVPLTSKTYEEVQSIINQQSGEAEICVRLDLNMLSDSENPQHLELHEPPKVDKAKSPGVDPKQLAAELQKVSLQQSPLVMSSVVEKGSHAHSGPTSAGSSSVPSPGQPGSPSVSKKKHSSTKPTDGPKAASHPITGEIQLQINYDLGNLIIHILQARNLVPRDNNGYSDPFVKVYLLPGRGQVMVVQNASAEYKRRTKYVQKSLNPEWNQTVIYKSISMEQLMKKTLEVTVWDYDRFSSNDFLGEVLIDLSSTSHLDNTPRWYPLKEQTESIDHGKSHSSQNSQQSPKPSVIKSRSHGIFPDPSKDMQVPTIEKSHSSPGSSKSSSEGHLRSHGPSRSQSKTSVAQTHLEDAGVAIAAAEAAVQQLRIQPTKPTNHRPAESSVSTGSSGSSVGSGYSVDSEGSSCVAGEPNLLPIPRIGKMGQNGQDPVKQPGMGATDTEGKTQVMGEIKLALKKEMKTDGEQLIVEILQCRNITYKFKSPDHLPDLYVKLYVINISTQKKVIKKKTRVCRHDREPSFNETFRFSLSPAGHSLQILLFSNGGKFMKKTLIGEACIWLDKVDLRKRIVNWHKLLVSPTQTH
UniProt Q8BPM0: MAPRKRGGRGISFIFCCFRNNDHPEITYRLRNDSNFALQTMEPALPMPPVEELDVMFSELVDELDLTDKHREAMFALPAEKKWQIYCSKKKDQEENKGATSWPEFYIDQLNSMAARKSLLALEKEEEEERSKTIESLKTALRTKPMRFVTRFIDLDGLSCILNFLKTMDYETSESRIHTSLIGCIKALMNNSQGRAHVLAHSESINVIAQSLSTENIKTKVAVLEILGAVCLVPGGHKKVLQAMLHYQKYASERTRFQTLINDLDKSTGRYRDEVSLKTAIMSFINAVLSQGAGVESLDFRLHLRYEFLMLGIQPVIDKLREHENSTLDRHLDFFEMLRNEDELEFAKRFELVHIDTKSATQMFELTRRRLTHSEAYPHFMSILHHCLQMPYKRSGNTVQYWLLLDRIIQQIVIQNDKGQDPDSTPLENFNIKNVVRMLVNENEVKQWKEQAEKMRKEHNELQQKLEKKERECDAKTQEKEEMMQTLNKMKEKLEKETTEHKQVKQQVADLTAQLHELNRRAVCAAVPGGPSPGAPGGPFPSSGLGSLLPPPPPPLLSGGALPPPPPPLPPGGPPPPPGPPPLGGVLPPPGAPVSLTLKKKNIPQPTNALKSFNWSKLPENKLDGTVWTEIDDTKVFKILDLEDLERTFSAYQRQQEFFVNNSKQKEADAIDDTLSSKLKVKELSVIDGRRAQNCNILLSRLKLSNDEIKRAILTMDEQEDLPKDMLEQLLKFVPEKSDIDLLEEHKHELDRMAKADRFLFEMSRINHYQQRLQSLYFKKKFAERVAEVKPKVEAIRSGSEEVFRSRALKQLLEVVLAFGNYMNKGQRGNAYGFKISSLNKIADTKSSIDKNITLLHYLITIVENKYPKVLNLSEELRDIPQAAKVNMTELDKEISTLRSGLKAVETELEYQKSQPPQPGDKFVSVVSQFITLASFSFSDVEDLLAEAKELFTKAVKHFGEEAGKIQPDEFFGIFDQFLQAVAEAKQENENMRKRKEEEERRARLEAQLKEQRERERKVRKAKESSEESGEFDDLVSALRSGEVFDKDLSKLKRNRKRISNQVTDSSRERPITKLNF

Molecular target: EGFP-Pclo_(3802-4880) (UniProt Q9JKS6)
Assay: co-IP; COS7 cells co-transfected, lysed in 1% Triton X-100 in 1X PBS with protease inhibitors, 4°C; EGFP antibody or Piccolo 1980-2553 antibody with Protein A/G; Western blot

binding: no binding
Substance: Myc-Daam1 (from UniProt Q8BPM0 1-1077)
